At least one structure is not confirmed: it was looked up by name or label, or the drawing left a doubt.
Assay: Rx100 salt screening (solid formation, XRPD wet/dry, filterability, exposure to RH > 90%)
Settings: for Dry (XRPD) / Exposed to high RH overnight (XRPD) / Slurry (crystal/oil) upon solvent addition / Wet (XRPD): label = base; for XRPD, wet / Slurry (crystal/oil)?: stage 2 round 2, Rx100 free acid + 1 eq base (label = base); for RH > 90% overnight (XRPD pattern after exposure): stage 1, first round, one equivalent of base, dry solid exposed overnight, number = counter ion, letter = pattern
Experimental: We designed a complex and unconventional screening regime to screen for Rx100 crystalline salts. […] The screening regime is described as follows.
Rx100.FA in the form of a viscous liquid and eighteen counter ions were used as starting materials. These counter ions are listed and numbered in Table 4. The numbers will be used for grouping the resulting solids. The screening was performed in three stages.
Stage one (1) included screening 11 counter ions: sodium hydroxide, ammonium hydroxide, ethylenediamine, diethylamine, tromethamine (Tris), hydroxyethyl morpholine, benzathine, dimethylamino ethanol, L-Arginine, L-Lysine, L-Histidine. […] In stage 1, we performed three rounds of experiment.
In the first round of experiment, four (4) solvent systems, i.e., isopropyl alcohol (IPA), diethyl ether (DEE), IPA:water (a mixture at a volume ratio of 95:5) and tetrahydrofuran (THF), were used. Thus in this first round of screening, 44 individual base-acid reactions were conducted in 44 vials.
First, Rx100.FA and each of the bases were mixed in a vial. […] In each of the 44 vials, 211.1 μL of the prepared liquid, which was equivalent to about 35 mg of Rx100.FA, was first dispensed. Then, one equivalent (molar) of each of the 11 bases was dispensed in its corresponding vial. For example, the base sodium hydroxide was added to vials 1, 12, 23 and 34. Similarly, L-histidine was added to vials 11, 22, 33 and 44. Observations were recorded upon addition of the bases in to Rx100.FA.
Second, the solvent in each mixture was depleted. All vials containing the mixtures of Rx100.FA and each of the bases were left under moderate vacuum and nitrogen bleed at room temperature overnight to evaporate the solvent. The vials were then kept under full vacuum for about an hour to make sure the solvents (ethanol and water) are evaporated. Observations on formation of solid upon evaporation were recorded.
Third, solvents were added in each vial to induce solid formation. In each vial, a stir bar and one of the four selected solvents (each 5 volumes with respect to the Rx100.FA) were added. The vials were then capped. IPA was added to the first set of 11 vials (1-11), DEE added to the second set of 11 vials (12-22), IPA:water added to the third set of 11 vials (23-33), and THF added to the fourth set of 11 vials (34-44). The vials were left at room temperature while stirring for at least 5 hours. Observations were recorded.
The first set of XRPD analyses were recorded as “wet” samples. The solids were dried under vacuum for 1 hour and at room temperature followed by XRPD as “dry” sample. The dry solid was then exposed to relative humidity of more than 90% overnight followed by XRPD analysis. For XRPD naming, a number and a letter were used. The number refers to the counter ion and the letter refers to the chronological discovered XRPD pattern of that particular salt.
In the second round of experiment of stage one, another four (4) solvent systems, i.e., methanol (MeOH), tert-Butyl methyl ether (tBME), ethyl acetate and toluene, were used in the same 44 vials as used in the first round experiment. The solvents in all 44 vials from the first round were evaporated to dryness under vacuum and nitrogen bleed. The 4 new solvents were then added into the vials. Methanol was added to the first set of 11 vials (1-11), tBME added to the second set of 11 vials (12-22), Ethyl acetate added to the third set of 11 vials (23-33), and Toluene added to the fourth set of 11 vials (34-44). The same procedure as in the first round of experiment was followed for these new solvents and samples were taken for XRPD analysis.
In the third round of experiment, effect of base equivalence was assessed. […] After addition of the extra base, the previous solvent was evaporated and new solvents added.

[1] = stage 3, 1.05 eq, L-lysine 2.00 eq, solvent MeOH
[2] = stage 3, 1.05 eq, L-lysine 2.00 eq, solvent MeOH:Water [9:1]

For `NCCCC[C@@H](N)C(=O)O` [D-Lysine], the “Cloudy upon reaction (Y/N)?” value (stage 3, 35 mg Rx100 free acid + base (label = base), 1.05 eq, L-lysine 2.00 eq) was “Y”, the “Dry (XRPD)” value [1] was 16-B and the “Exposed to high RH overnight (XRPD)” value [1] was 16-D. The “Slurry (crystal/oil) upon solvent addition” value [1] was “Y”, the “Wet (XRPD)” value [1] was 16-A and the “Dry (XRPD)” value [2] was 16-C. For the same compound, the “Exposed to high RH overnight (XRPD)” value [2] was 16-E, the “Slurry (crystal/oil) upon solvent addition” value [2] was “Y” and the “Wet (XRPD)” value [2] was 16-C.

In the case of `[K+].[OH-]` [KOH], the “XRPD, wet” value (Ethyl acetate) is reported as 12-C, the “XRPD, wet” value (IPA:water (1:1)) is reported as 12-D and the “Slurry (crystal/oil)?” value (new solvent Ethyl acetate) is reported as “Y”. For the same compound, the “Slurry (crystal/oil)?” value (new solvent IPA:water (1:1)) was “Y”.

For `CCCCCCCC/C=C\CCCCCCCCOP(O)(O)=S` [Rx100.Ammonia, (Z)—O-octadec-9-en-1-yl O,O-dihydrogen phosphorothioate], the Polymorphic behavior (Rx100 salt formed with the named base, XRPD) was “Oily on XRPD”, the Crystallinity (Rx100 salt formed with the named base, XRPD, listed as Ammonium) was “yes” and the Filterability (Rx100 salt formed with the named base, listed as Ammonium) was “no”. For the same compound, the “RH > 90% overnight (XRPD pattern after exposure)” value (listed as 2-2) was 2-B and the “RH > 90% overnight (XRPD pattern or state after exposure)” value (stage 1, third round, 2.1 eq of base) was 2-D.

In the case of `CCCCCCCC/C=C\CCCCCCCCOP([O-])(O)=S.[Na+]` [Sodium], the “RH > 90% overnight (XRPD pattern after exposure)” value (listed as 2-1) is reported as 1-A and the “RH > 90% overnight (XRPD pattern after exposure)” value (listed as 2-12) is reported as 1-C.

Reference: patent US20170226139A1, “CRYSTALLINE SALTS OF (Z)-O-OCTADEC-9-EN-1-YL O,O-DIHYDROGEN PHOSPHOROTHIOATE” (priority 2013, published 2017)
